Drawing on PMC5109294, “NANOG reprograms prostate cancer cells to castration resistance via dynamically repressing and engaging the AR/FOXA1 signaling axis”, this text covers binding for one substance.

Amino acid sequences for entries named in this document (tags omitted).
UniProt Q9H9S0: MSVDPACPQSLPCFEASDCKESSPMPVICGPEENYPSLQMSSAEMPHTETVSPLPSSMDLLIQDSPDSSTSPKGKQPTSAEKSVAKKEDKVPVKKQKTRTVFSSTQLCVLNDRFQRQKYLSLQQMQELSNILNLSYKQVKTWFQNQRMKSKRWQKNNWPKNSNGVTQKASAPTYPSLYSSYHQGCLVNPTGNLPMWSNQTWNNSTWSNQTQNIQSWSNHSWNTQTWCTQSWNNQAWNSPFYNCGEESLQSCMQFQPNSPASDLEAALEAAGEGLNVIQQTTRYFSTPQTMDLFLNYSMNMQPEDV

In this assay the target is T1, Forkhead box A1 (human (endogenous in LNCaP)) (UniProt P55317).
T1 sequence: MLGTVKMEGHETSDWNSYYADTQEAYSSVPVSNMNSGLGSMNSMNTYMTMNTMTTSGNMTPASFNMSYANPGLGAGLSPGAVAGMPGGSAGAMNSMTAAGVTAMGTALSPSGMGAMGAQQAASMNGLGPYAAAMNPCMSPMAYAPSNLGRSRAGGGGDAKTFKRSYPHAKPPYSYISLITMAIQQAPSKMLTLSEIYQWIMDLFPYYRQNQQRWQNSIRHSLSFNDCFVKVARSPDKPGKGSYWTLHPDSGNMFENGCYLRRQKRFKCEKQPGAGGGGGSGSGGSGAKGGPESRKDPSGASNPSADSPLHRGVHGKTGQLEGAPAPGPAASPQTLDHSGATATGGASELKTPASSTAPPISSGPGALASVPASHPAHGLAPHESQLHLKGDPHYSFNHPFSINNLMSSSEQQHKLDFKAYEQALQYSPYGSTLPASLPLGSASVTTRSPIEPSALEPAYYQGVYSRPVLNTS
Nature of the assay: co-IP; whole-cell lysate of LNCaP-pLVX, LNCaP-NANOG1 or LNCaP-NP8 cells; IP with anti-FOXA1 goat pAb, western blot for FOXA1, AR and NANOG. On the technique in general: A western blot detects proteins with antibodies after separation by electrophoresis.

These are yes or no findings as the source states them, for the method shown. In cells and extracts the contact can be indirect. Some results given as binding are weak or reduced against the parent protein; the word gives no strength.

NANOG1 (from UniProt Q9H9S0 1-305): the binding result is “binds”.
